Results published in US20050058639A1.
Results are given in words; binding and its absence hold for the method and conditions named. Some binding calls cover weakened binding; strength is not graded here.

Sequences of proteins named here, by UniProt entry; tags and fusion partners are left off. A change or cut given only in a name is not applied to a line headed by its entry. Residues count along the entry.
UniProt P80075, residues 24-99: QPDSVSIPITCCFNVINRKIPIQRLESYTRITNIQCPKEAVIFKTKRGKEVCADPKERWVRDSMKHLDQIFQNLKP
UniProt P51671, residues 24-97: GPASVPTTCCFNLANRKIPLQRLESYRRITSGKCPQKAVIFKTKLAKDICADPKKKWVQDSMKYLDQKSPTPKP
UniProt P80098, residues 24-99: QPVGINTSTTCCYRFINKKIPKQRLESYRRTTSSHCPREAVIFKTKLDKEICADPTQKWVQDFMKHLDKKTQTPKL
UniProt P13500: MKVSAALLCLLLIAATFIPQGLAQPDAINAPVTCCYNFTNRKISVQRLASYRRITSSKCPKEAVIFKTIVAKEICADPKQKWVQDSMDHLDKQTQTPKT

Legend:
[1] = biological target: recombinant human MCP-2 (human) (UniProt P80075); assay: Cross-Reactivity column, ELISA on coated chemokines
[2] = biological target: human eotaxin (human) (UniProt P51671); assay: as above
[3] = biological target: recombinant human MCP-3 (human) (UniProt P80098); assay: as above
[4] = biological target: human monocyte chemo-attractant protein-1 (MCP-1) (human) (UniProt P13500); assay: Western blot

Binder	binding [1]	binding [2]	binding [3]	binding [4]
anti-MCP-1 mAb 3.2 (antibody, V domains shown) VH: QVQLVQSGAEVKKPGASVKVSCKVSGYTLSELSMHWVRQAPGKGLEWMGGFDPEDGEIIHAQKFQGRVTMTEDTSTDTAYMELSSLRSEDTAVYYCATGDFWSGYYLDWWGQGTLVTVSS VL: EIVMMQSPATLSVSPGERATLSCRASQSVNSNLAWYQQKPGQAPRLLINGASTRATGIPARFSGSGSGTEFTLTISSLQSEDFAIYYCQQYNDWPTFTFGGGTKVEINR	binds	binds	binds	–
anti-MCP-1 mAb 1.8.1 (antibody, V domains shown) VH: QVQLVQSGAEVKKPGASVKVSCKVSGHIFTELSIHWVRQAPGKGLEWMGGFDPEDGETIYAQKFQGRVTMTEDTSTDTVYMELSSLRSEDTAVYYCATNDFWSGYFDYWGQGTLVTVSS VL: DIVMTQSPGSLAVSLGERATINCKSSQSILFRSNNKNYLTWYQQKPGQPPKLLIYWASIRESGVPDRFSGSGSGSNFTLTITSLQAEDVAIYYCQQYYSSPWTFGQGTKVEIKR	–	–	–	binds
